PubChem BioAssay AID743121, NCATS – 2013
Purpose: 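Partners whose loss is lethal together with topoisomerase I blockade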 (primary screen). Cells: MDA-MB-231 cells, a human breast cancer line. Reagents: single siRNA against human genes, 20 nM siRNA (0.8 pmol per well). Timing: 120 h (drug added 48 h after transfection, read 72 h later). Conditions: camptothecin 20 nM (about EC30) for 72 h; vehicle 0.1% DMSO in parallel plates. Detection: 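CellTiter-Glo ATP signal, scaled to control siRNA as percent viability; sensitisation given as log2 of untreated divided by camptothecin-treated viability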. Reading the numbers: log2 vehicle/camptothecin viability: higher = stronger sensitisation to camptothecin; viability with camptothecin and viability without drug: higher = more viable cells. Rule for the call: 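Each gene scored by redundant siRNA activity (RSA) over its individual siRNA ratios; a gene is called active at p < 0.001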.
Shown is one part, drawn at random, of about 26,000 reagents tested. Over the whole deposit, 167 (0.63%) are marked active. 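Calls are per gene from RSA p-values that are not deposited; an individual active-marked siRNA can sensitise only weakly.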 A number with no mark means an inactive call. The numbers tell different reagents against one gene apart.

gene	siRNA no.	log2 vehicle/camptothecin viability	viability with camptothecin (% of control)	viability without drug (% of control)
ULK3	1	-0.135	100	91
ULK3	2	-0.374	72.2	55.7
ULK3	3	0.585	17.1	25.6
ULK3	4	-0.252	122	102
LHX3	1	0.734	9.46	15.7
LHX3	2	-0.0386	64.5	62.8
LHX3	3	0.229	91.8	108
LHX3	4	-0.612	70.4	46.1
IL6R	1	-0.138	113	102
IL6R	2	-0.0455	58.3	56.5
IL6R	3	-0.177	74.1	65.5
NRG3	1	-0.222	87.8	75.3
NRG3	2	-0.329	93.2	74.2
NRG3	3	0.43	56.4	76
WT1-AS	1	0.0183	109	110
WT1-AS	2	0.00401	41.1	41.2
WT1-AS	3	-0.148	83	74.9
WT1-AS	4	-0.738	85.1	51
NUF2	1	-0.833	71.5	40.1
NUF2	2	-0.904	58.2	31.1
NUF2	3	-0.677	57.7	36.1
NUF2	4	-0.77	37.3	21.9
SLIT1	1	-0.206	89.1	77.2
SLIT1	2	-0.657	92	58.4
SLIT1	3	0.886	26.8	49.5
SLIT1	4	0.0756	80.1	84.4
EFNA3	1	-0.314	78.2	62.9
EFNA3	2	0.199	83.3	95.6
EFNA3	3	0.0943	59	63
EFNA3	4	0.244	52.3	61.9
PGLYRP3	1	0.134	31.9	35
PGLYRP3	2	-0.328	76.6	61
PGLYRP3	3	0.369	67.7	87.5
PGLYRP3	4	0.0149	72.4	73.1
BLNK	1	-0.61	99.3	65.1
BLNK	2	-0.232	86	73.2
BLNK	3	-0.327	97.5	77.7
BLNK	4	0.853	51	92.1
GDF11	1	-0.178	48.5	42.9
GDF11	2	0.00663	85.1	85.5
GDF11	3	0.0284	94.8	96.7
HTATIP2	1	-0.168	90.9	80.9
HTATIP2	2	-0.0935	103	96.1
HTATIP2	3	-0.183	90.8	80
AKAP6	1	-0.159	77	69
AKAP6	2	-0.536	106	72.9
AKAP6	3	-0.163	93.8	83.7
AKAP6	4	-0.306	60.6	49
DCLRE1B	1	-0.0309	15.6	15.3
DCLRE1B	2	0.467	40.7	56.3
DCLRE1B	3	-0.115	82.1	75.8
STAMBPL1	1	-0.594	36.9	24.4
STAMBPL1	2	-0.232	84.5	71.9
STAMBPL1	3	-0.247	92.2	77.6
STAMBPL1	4	0.0317	79.9	81.7
ING4	1	-0.55	46.7	31.9
ING4	2	-0.312	108	86.7
FECH	1	-0.0833	97.1	91.7
FECH	2	-0.524	88.4	61.5
FECH	3	0.0574	46.1	48
FECH	4	-0.513	73.2	51.3
ATP6V1B2	1	-0.738	35.7	21.4
ATP6V1B2	2	-0.179	55.8	49.3
ATP6V1B2	3	-0.496	58.8	41.7
ATP6V1B2	4	-0.543	66.7	45.8
CLEC1A	1	-0.0441	65.5	63.5
CLEC1A	2	-0.0697	57.3	54.6
CLEC1A	3	0.0303	69.6	71.1
CLEC1A	4	0.406	39.1	51.9
CACNA1G	1	0.246	36.1	42.8
CACNA1G	2	0.442	29.4	40
CACNA1G	3	0.114	73	79
CACNA1G	4	0.0926	58.2	62
C6	1	0.0283	96.1	98
C6	2	-0.404	87.1	65.8
C6	3	0.341	76.8	97.3
C6	4	0.326	40.9	51.3
EFNA2	1	-0.163	43.6	39
EFNA2	2	-0.191	98.9	86.7
EFNA2	3	-0.209	99.8	86.4
PLAAT2	1	-0.00816	95.4	94.8
PLAAT2	2	0.836	35.9	64.1
PLAAT2	3	0.0712	87	91.4
FZD6	1	0.082	86.7	91.8
FZD6	2	-0.166	100	89.3
FZD6	3	-0.936	38.8	20.3
FZD6	4	-0.233	71.4	60.7

In a second layout: results already given
| gene | siRNA no. | log2 vehicle/camptothecin viability | viability with camptothecin (% of control) | viability without drug (% of control) |
| --- | --- | --- | --- | --- |
| CACNA1G | 3 | 0.114 | 73 | 79 |
| CACNA1G | 4 | 0.0926 | 58.2 | 62 |
| C6 | 1 | 0.0283 | 96.1 | 98 |
| C6 | 2 | -0.404 | 87.1 | 65.8 |
